Measured values published in the supplement of paper PMC10849652.
The other results are listed elsewhere or left out.

Amino acid sequences for entries named in this document (tags omitted). A change or cut given only in a name is not applied to a line headed by its entry.
UniProt Q8IXQ4: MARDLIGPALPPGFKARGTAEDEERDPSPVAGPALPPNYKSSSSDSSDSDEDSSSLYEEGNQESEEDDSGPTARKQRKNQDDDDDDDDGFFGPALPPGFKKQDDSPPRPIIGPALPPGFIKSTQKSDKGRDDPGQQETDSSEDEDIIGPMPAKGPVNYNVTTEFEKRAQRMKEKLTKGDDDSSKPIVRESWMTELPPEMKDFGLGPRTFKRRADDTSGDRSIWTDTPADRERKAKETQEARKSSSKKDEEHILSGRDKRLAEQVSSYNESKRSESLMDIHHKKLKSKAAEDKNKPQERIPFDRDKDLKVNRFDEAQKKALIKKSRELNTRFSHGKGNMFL
UniProt P17900: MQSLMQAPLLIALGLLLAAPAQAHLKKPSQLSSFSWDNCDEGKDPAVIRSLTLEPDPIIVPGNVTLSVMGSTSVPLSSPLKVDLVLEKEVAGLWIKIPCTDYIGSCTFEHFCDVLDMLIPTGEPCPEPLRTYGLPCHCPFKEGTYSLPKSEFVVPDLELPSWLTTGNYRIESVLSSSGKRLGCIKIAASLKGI
UniProt Q3T906: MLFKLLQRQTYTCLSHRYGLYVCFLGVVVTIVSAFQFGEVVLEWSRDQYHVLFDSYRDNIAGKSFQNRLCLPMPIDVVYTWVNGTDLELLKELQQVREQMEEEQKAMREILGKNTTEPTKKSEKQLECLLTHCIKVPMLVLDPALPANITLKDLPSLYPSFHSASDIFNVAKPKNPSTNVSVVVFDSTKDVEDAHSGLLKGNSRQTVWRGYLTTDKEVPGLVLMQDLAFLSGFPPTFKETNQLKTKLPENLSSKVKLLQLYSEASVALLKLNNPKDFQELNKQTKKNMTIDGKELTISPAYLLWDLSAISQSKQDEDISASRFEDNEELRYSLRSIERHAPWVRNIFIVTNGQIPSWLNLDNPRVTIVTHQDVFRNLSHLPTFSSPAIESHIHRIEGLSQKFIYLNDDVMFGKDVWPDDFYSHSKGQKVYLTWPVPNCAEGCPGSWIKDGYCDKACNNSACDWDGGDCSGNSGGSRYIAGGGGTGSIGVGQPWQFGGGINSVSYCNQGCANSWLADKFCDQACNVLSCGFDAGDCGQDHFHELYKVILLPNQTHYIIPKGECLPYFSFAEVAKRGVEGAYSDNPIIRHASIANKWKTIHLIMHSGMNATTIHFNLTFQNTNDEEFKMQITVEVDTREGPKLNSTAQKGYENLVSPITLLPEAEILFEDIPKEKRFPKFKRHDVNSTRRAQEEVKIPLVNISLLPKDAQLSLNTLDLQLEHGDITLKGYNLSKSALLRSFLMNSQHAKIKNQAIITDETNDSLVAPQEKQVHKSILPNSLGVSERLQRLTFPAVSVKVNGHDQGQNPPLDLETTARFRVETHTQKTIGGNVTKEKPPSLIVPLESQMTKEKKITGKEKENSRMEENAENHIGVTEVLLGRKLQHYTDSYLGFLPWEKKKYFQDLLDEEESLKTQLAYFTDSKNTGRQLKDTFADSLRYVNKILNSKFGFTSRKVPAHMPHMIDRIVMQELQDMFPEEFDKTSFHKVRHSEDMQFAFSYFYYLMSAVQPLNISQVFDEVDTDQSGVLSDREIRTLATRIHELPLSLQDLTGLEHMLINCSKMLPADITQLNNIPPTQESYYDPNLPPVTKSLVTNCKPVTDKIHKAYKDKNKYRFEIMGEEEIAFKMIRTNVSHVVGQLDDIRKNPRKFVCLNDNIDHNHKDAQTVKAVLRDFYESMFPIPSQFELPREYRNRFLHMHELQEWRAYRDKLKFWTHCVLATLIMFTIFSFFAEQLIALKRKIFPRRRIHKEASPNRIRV
UniProt Q9H4A6: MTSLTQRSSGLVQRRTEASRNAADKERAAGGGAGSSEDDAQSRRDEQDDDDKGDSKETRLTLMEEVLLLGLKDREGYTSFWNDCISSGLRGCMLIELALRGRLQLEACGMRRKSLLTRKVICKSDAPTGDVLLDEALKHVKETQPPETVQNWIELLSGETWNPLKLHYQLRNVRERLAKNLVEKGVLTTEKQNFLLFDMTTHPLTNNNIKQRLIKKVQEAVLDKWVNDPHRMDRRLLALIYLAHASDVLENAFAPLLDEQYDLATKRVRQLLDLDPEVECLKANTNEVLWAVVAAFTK
UniProt O60234, whole entry, looked up: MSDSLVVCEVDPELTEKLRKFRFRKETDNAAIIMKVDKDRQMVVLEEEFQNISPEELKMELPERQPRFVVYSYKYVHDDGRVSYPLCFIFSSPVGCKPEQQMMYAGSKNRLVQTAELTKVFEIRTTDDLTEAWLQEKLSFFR
UniProt Q4V328: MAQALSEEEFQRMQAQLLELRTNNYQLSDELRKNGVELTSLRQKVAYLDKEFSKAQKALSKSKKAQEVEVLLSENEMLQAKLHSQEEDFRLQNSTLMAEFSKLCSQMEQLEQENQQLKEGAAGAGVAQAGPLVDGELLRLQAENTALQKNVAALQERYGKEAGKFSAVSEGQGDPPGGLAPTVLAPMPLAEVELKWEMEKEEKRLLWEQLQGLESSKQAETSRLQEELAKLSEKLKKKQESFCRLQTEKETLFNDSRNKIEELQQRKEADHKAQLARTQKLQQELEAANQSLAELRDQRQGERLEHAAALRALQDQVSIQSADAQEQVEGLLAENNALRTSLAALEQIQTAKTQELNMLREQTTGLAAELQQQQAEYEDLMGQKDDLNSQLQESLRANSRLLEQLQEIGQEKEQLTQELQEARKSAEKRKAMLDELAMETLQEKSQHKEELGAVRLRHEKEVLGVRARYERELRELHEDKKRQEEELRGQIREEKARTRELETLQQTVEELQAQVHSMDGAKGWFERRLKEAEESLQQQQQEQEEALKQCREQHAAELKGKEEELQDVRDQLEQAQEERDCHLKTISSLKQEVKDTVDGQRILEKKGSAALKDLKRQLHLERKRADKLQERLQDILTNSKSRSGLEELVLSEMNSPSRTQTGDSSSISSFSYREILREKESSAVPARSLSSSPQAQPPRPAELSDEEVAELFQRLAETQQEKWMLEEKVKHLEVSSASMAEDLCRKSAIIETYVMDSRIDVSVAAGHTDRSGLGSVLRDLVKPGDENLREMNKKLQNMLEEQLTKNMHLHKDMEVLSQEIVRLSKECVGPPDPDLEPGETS
UniProt O75496: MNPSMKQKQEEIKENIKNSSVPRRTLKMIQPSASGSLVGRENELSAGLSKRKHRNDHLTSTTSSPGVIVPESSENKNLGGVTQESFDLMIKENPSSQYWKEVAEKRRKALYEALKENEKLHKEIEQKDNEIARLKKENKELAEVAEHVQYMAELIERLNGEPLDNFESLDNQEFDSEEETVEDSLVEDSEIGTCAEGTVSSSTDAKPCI
UniProt P21695: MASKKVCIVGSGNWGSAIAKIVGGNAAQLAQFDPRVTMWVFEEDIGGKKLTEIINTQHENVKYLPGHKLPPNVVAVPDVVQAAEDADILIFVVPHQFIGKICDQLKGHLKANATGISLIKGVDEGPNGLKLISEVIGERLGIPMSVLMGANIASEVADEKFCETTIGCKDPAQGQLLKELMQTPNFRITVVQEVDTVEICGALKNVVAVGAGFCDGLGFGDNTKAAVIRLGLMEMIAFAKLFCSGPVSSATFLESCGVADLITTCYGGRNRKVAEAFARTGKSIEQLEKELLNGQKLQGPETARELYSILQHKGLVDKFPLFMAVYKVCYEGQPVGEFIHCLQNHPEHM
UniProt P62879, whole entry, looked up: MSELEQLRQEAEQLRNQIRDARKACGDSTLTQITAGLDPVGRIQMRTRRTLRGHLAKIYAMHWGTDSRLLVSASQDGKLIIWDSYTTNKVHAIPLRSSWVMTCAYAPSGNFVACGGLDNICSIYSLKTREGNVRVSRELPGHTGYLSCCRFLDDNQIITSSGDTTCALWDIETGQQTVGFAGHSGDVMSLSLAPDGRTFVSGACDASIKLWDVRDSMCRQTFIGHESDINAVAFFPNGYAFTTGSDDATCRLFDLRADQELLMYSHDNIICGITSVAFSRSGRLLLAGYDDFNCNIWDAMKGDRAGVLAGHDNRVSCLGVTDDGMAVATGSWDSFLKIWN
UniProt P49448: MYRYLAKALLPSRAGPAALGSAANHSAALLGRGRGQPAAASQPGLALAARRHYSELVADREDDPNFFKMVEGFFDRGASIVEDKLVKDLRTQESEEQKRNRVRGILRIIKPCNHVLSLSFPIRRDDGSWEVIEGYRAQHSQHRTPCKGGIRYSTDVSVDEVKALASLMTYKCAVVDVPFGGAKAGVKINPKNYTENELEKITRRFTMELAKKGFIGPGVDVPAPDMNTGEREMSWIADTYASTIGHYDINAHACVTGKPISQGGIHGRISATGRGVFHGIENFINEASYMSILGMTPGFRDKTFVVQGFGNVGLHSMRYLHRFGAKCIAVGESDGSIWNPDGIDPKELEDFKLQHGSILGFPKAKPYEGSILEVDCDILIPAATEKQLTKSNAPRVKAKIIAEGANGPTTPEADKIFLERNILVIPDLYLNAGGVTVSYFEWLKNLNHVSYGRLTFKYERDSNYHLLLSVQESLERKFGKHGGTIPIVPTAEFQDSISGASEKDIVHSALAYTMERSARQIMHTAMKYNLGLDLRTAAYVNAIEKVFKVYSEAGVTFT
UniProt P04899, whole entry, looked up: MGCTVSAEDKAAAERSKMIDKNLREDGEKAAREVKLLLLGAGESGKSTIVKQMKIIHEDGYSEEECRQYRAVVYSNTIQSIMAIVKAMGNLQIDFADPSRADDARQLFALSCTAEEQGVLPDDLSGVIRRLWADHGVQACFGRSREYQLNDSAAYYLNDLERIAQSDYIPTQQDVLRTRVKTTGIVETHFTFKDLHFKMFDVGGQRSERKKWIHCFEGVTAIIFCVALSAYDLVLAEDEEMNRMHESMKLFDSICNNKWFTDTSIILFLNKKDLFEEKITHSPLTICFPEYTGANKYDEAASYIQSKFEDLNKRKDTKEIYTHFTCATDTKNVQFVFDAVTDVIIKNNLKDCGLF
UniProt Q9Y3E0: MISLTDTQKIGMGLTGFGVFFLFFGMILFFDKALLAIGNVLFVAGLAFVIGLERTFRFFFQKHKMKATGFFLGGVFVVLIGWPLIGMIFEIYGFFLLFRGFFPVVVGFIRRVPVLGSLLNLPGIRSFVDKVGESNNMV
UniProt Q9HC44: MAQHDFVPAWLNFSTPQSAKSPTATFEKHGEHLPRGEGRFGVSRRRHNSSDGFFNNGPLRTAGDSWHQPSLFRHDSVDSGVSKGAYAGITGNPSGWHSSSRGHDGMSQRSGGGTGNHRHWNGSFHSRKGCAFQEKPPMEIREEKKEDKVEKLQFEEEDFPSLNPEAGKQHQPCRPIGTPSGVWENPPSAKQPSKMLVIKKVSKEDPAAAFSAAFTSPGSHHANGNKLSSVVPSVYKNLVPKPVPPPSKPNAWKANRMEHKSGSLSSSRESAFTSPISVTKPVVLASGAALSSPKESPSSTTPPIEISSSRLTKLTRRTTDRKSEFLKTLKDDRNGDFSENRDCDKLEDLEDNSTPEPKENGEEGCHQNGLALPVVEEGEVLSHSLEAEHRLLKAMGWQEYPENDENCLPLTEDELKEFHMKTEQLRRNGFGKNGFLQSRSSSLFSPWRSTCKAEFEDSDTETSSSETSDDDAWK
UniProt Q8N954: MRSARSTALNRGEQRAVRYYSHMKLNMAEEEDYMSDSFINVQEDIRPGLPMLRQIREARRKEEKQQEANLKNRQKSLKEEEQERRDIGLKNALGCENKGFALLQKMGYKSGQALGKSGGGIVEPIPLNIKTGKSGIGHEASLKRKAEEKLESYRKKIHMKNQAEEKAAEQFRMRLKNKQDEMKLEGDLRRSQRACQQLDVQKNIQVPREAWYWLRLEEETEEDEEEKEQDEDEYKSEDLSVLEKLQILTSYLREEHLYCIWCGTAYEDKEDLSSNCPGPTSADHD
UniProt Q9UBQ7: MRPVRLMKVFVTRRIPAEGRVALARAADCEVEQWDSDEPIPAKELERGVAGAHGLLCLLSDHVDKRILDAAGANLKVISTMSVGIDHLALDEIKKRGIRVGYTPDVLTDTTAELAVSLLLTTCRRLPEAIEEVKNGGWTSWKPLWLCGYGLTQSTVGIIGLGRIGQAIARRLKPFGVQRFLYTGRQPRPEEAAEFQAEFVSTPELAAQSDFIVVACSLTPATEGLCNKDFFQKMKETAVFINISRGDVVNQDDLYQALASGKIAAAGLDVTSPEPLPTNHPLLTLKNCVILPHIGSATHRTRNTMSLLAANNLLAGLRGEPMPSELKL
UniProt Q86SX6: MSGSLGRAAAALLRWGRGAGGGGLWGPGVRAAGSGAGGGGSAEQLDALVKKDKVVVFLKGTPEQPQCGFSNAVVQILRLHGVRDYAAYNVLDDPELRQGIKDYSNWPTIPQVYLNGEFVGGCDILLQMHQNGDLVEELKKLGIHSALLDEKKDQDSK
UniProt Q9UJJ9: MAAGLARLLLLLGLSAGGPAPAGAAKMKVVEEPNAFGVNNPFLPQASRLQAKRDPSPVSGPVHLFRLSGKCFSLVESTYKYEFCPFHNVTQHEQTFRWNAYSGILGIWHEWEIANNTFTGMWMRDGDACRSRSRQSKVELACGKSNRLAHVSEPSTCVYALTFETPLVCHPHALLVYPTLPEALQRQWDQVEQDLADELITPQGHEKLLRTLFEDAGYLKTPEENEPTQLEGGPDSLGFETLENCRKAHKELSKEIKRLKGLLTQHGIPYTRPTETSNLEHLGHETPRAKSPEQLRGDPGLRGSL

Assays:
Assay in all cases: log2 fold change, soluble protein after heating vs DMSO (PISA); higher = thermal stabilisation; K562 cells, 10 uM, 30 min; active = over 0.2 and 3.5 SD of the protein, either way, in both replicates (recomputed)
erlotinib = compound: C#Cc1cccc(Nc2ncnc3cc(OCCOC)c(OCCOC)cc23)c1 [erlotinib]
Summary of the method: (§1)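 K562 cells at 2×10^6 cells/mL were given 10 μM compound for 30 min. Aliquots then went through 3 min of heating across 48°C-58°C, were pooled, and were extracted in PBS with 0.5% NP-40 at 4°C, and the supernatant after 21,000xg for 90 min was quantified by TMTpro 16plex LC-MS/MS with channel sums equalised. Thermal stability relative to control samples, from duplicates, is given as log2 fold change.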

[1] = compound: C/C(=N\NC(=O)C1=CC(=CC=C1)S(=O)(=O)N2CCOCC2)/C3=C(C=CC(=C3)Cl)O
Summary of the method: as §1

[2] = compound: C1=CC(=C(C=C1Cl)C2=NC3=NC=CN=C3C(=N2)NC4=CC=NC=C4)F
Summary of the method: as §1

[3] = compound: C1=CC(=CC=C1C2=NC3=C(N2)C=C(C=C3)C(=O)N)OC4=CC=C(C=C4)Cl
Summary of the method: as §1

[4] = compound: C1=CC2=C(C=CC(=C2)/C=C\3/C(=O)NC(=NCC4=CC=CS4)S3)N=C1
Summary of the method: as §1

[5] = compound: C1=CC2=NC=CN=C2C=C1/C=C/3\C(=O)NC(=O)S3
Summary of the method: as §1

[6] = compound: C1=CC=C(C=C1)C2=NC(=C(N2)C3=CC=NC=C3)C4=CC(=C(C=C4)Cl)O
Summary of the method: as §1

[7] = compound: C1=CC=C2C(=C1)C3=NNC4=CC=CC(=C43)C2=O
Summary of the method: as §1

[8] = compound: C1CCN(C1)C(=O)NC2=CC=CC(=C2)NC3=NC=C(C(=N3)NCCC4=CN=CN4)Br
Summary of the method: as §1

[9] = compound: C1CN(CCC1(CC2=CC=C(C=C2)Cl)N)C3=NC=NC4=C3C=CN4
Summary of the method: as §1

Measured: log2 fold change

GNAS (UniProt Q5JWF2)
inactive: erlotinib 0.001 | [1] 0.042 | [2] -0.032 | [3] 0.043 | [4] 0.026 | [5] 0.021 | [6] 0.02 | [7] 0.011 | [8] -0.011 | [9] 0.043

GPALPP1 (UniProt Q8IXQ4)
inactive: erlotinib 0.011 | [1] 0.003 | [2] -0.002 | [3] 0.029 | [4] 0.041 | [5] 0.045 | [6] -0.069 | [7] 0.005 | [8] 0.071 | [9] 0.011

GPI (UniProt P06744)
inactive: erlotinib 0.015 | [1] 0.018 | [2] 0.059 | [3] -0.026 | [4] -0.018 | [5] -0.019 | [6] 0.001 | [7] 0.019 | [8] -0.023 | [9] 0.021

GRAP2 (UniProt O75791)
inactive: erlotinib 0.012 | [1] 0.017 | [2] -0.084 | [3] -0.062 | [4] 0.232 | [5] 0.281 | [6] 0.037 | [7] 0.018 | [8] -0.078 | [9] 0.033

GMPPB isoform 2 (UniProt Q9Y5P6)
inactive: erlotinib 0.045 | [1] 0.01 | [2] 0.018 | [3] 0.001 | [4] 0.041 | [5] -0.035 | [6] 0.022 | [7] 0.003 | [8] -0.014 | [9] 0.033

GM2A (UniProt P17900)
inactive: erlotinib 0.001 | [1] 0.023 | [2] 0.049 | [3] -0.088 | [4] 0.087 | [5] -0.003 | [6] -0.054 | [7] -0.061 | [8] -0.014 | [9] -0.004

GOLGA3 (UniProt Q08378)
inactive: erlotinib -0.009 | [1] 0.03 | [2] 0.074 | [3] 0.01 | [4] 0.013 | [5] 0.015 | [6] 0.019 | [7] -0.04 | [8] -0.018 | [9] -0.02

GNPTAB (UniProt Q3T906)
inactive: erlotinib 0.063 | [1] 0 | [2] 0.087 | [3] 0.045 | [4] 0.029 | [5] -0.004 | [6] -0.124 | [7] -0.053 | [8] 0.085 | [9] -0.079

GMEB1 (UniProt Q9Y692)
inactive: erlotinib 0.106 | [1] 0.071 | [2] 0.012 | [3] -0.005 | [4] -0.006 | [5] 0.009 | [6] -0.027 | [7] -0.089 | [8] 0.004 | [9] 0.036

GMPS (UniProt P49915)
inactive: erlotinib -0.002 | [1] 0.062 | [2] 0.072 | [3] 0.019 | [4] 0.04 | [5] 0.023 | [6] 0.073 | [7] 0.031 | [8] 0.003 | [9] 0.007

GOLPH3 (UniProt Q9H4A6)
inactive: erlotinib 0.008 | [1] 0.073 | [2] 0.104 | [3] -0.014 | [4] 0.011 | [5] 0.008 | [6] 0.051 | [7] -0.007 | [8] -0.101 | [9] 0.043

GLS isoform 3 (UniProt O94925)
inactive: erlotinib 0.09 | [1] 0.156 | [2] -0.041 | [3] -0.094 | [4] 0.027 | [5] 0.004 | [6] 0 | [7] -0.082 | [8] -0.11 | [9] -0.12

GMFG (UniProt O60234)
inactive: erlotinib -0.019 | [1] 0.017 | [2] 0.014 | [3] -0.016 | [4] 0.004 | [5] 0.01 | [6] 0.028 | [7] -0.012 | [8] -0.018 | [9] -0.027

GRIPAP1 (UniProt Q4V328)
inactive: erlotinib -0.013 | [1] 0.037 | [2] -0.028 | [3] 0.014 | [4] -0.045 | [5] 0.087 | [6] -0.02 | [7] -0.046 | [8] -0.01 | [9] -0.11

GOLIM4 (UniProt O00461)
inactive: erlotinib 0.033 | [1] 0.01 | [2] -0.006 | [3] 0.001 | [4] 0.047 | [5] 0.01 | [6] -0.012 | [7] 0.022 | [8] -0.007 | [9] 0.001

GMNN (UniProt O75496)
inactive: erlotinib -0.022 | [1] 0.013 | [2] 0.037 | [3] 0.01 | [4] -0.024 | [5] 0.016 | [6] -0.08 | [7] -0.011 | [8] -0.001 | [9] -0.001

GPD1 (UniProt P21695)
inactive: erlotinib 0.55 | [1] -0.084 | [2] -0.075 | [3] -0.305 | [4] 0.129 | [5] -0.149 | [6] -0.003 | [7] -0.047 | [8] -0.043 | [9] 0.032

GNB2 (UniProt P62879)
inactive: erlotinib 0.003 | [1] 0.079 | [2] -0.04 | [3] 0.051 | [4] -0.016 | [5] 0.007 | [6] -0.003 | [7] 0.008 | [8] -0.057 | [9] -0.002

GLUD2 (UniProt P49448)
inactive: erlotinib 0.009 | [1] -0.028 | [2] 0.028 | [3] 0.036 | [4] 0.003 | [5] -0.011 | [6] 0.03 | [7] 0.027 | [8] -0.005 | [9] -0.009

GNAI2 isoform 4 (UniProt P04899)
inactive: erlotinib -0.109 | [1] 0.025 | [2] -0.01 | [3] 0.033 | [4] -0.065 | [5] 0.042 | [6] 0.047 | [7] -0.009 | [8] -0.083 | [9] -0.012

GMPR (UniProt P36959)
inactive: erlotinib -0.056 | [1] 0.047 | [2] 0.047 | [3] 0.051 | [4] -0.01 | [5] -0.016 | [6] -0.022 | [7] -0.037 | [8] -0.012 | [9] 0.02

GOLT1B (UniProt Q9Y3E0)
inactive: erlotinib 0.042 | [1] 0.01 | [2] 0.012 | [3] 0.028 | [4] 0.009 | [5] 0.032 | [6] 0.077 | [7] -0.056 | [8] -0.01 | [9] 0.059

GPBP1L1 (UniProt Q9HC44)
inactive: erlotinib 0.009 | [1] -0.087 | [2] 0.031 | [3] 0.014 | [4] -0.013 | [5] -0.001 | [6] -0.134 | [7] -0.054 | [8] 0.007 | [9] -0.019

GPATCH11 (UniProt Q8N954)
inactive: erlotinib 0.017 | [1] -0.026 | [2] -0.039 | [3] 0.046 | [4] 0.003 | [5] 0.104 | [6] -0.005 | [7] 0.045 | [8] -0.094 | [9] 0.073

GIGYF2 (UniProt Q6Y7W6)
inactive: erlotinib 0.062 | [1] 0.081 | [2] -0.022 | [3] -0.03 | [4] 0.05 | [5] 0.014 | [6] 0.009 | [7] 0.025 | [8] -0.039 | [9] -0.025

GMDS (UniProt O60547)
inactive: erlotinib 0.001 | [1] 0.042 | [2] 0.021 | [3] -0.011 | [4] 0.056 | [5] 0.029 | [6] -0.017 | [7] 0 | [8] -0.008 | [9] 0.085

GRHPR (UniProt Q9UBQ7)
inactive: erlotinib 0.049 | [1] 0.038 | [2] 0.044 | [3] -0.006 | [4] -0.015 | [5] -0.06 | [6] 0.022 | [7] 0.065 | [8] -0.086 | [9] 0.062

GLRX5 (UniProt Q86SX6)
inactive: erlotinib -0.038 | [1] -0.078 | [2] 0.059 | [3] 0.026 | [4] 0.047 | [5] 0.002 | [6] -0.016 | [7] 0.129 | [8] -0.083 | [9] 0

Taken from the listing (2 entries):
GOLIM4 (UniProt O00461)
inactive: erlotinib 0.033 | [1] 0.01 | [2] -0.006 | [3] 0.001 | [4] 0.047 | [5] 0.01 | [6] -0.012 | [7] 0.022 | [8] -0.007 | [9] 0.001

GMNN (UniProt O75496)
inactive: erlotinib -0.022 | [1] 0.013 | [2] 0.037 | [3] 0.01 | [4] -0.024 | [5] 0.016 | [6] -0.08 | [7] -0.011 | [8] -0.001 | [9] -0.001

Next part.

GNPTG (UniProt Q9UJJ9)
inactive: erlotinib -0.016 | [1] -0.003 | [2] 0.012 | [3] 0.007 | [4] -0.126 | [5] -0.043 | [6] 0.008 | [7] 0.038 | [8] -0.02 | [9] 0.018

GMPPA (UniProt Q96IJ6)
inactive: erlotinib 0.027 | [1] 0 | [2] 0.04 | [3] -0.007 | [4] -0.027 | [5] -0.016 | [6] 0.028 | [7] 0.023 | [8] -0.032 | [9] 0.05
